# Results reported in publication PMC6199744, “Development of Chemical Proteomics for the Folateome and Analysis of the Kinetoplastid Folateome” (ACS Infectious Diseases, 2018).
# The source gives many values for each of these; only a part stands here.
# System: L. major lysate proteins
# Test: Multitargeted bead mixture chemoproteomics, single concentration competition, proteome-wide
# Type: binding
# Conditions: for fold change: vehicle control = 1
smiles,measurement,setting,value
CCCCCCOc1ccc(Cc2cnc(N)nc2N)cc1 [compound 1],fold change,"LMJF.29.2200 GTP-BINDING PROTEIN, PUTATIVE",0.9
same,fold change,"LMJF.29.2360 ASPARTYL AMINOPEPTIDASE, PUTATIVE",0.78
same,fold change,"LMJF.30.0580 HYPOTHETICAL PROTEIN, CONSERVED",0.93
same,fold change,"LMJF.30.1040 HYPOTHETICAL PROTEIN, CONSERVED",0.78
same,fold change,"LMJF.30.3380 PAS-DOMAIN CONTAINING PHOSPHOGLYCERATE KINASE, PUTATIVE",0.91
same,fold change,"LMJF.30.3530 HYPOTHETICAL PROTEIN, CONSERVED",0.66
same,fold change,"LMJF.30.3570 ZINC FINGER-DOMAIN PROTEIN, PUTATIVE",1.05
same,fold change,"LMJF.31.1110 HY[…], CONSERVED",0.94
same,fold change,"LMJF.31.2640 2-OXOGLUTARATE DEHYDROGENASE, E3 COMPONENT, […]-LIKE PROTEIN",0.7
same,fold change,LMJF.32.0450 AF467951_1 ribosomal protein S2,1.47
same,fold change,LMJF.33.3270 DELTA-12 FATTY ACID DESATURASE,1.09
same,fold change,"LMJF.34.0010 HY[…], CONSERVED",1.07
same,fold change,"LMJF.34.2610 ATP-DEPENDENT DNA HELICASE, PUTATIVE",0.72
same,fold change,"LMJF.34.4620 HYPOTHETICAL PROTEIN, CONSERVED",0.8
same,fold change,"LMJF.35.2150 HYPOTHETICAL PROTEIN, CONSERVED",0.93
same,fold change,"LMJF.35.2980 CHAPERONE PROTEIN DNAJ, PUTATIVE",0.6
same,fold change,"LMJF.35.4300 HYPOTHETICAL PROTEIN, CONSERVED",0.79
same,fold change,"LMJF.35.4880 HYPOTHETICAL PROTEIN, CONSERVED",0.8
same,fold change,LMJF.36.0250 EIF3-INTERACTING PROTEIN-LIKE PROTEIN,0.93
same,fold change,LMJF.36.1940 INOSINE-GUANOSINE TRANSPORTER,0.95
same,fold change,"LMJF.36.6980 EUKARYOTIC TRANSLATION INITIATION FACTOR 3 SUBUNIT 8, PUTATIVE",0.86
same,fold change,protein AF312586_1 IRON […] B1 (AF312583_1 iron […] B2),1.01
same,fold change,protein CLM00008612.1 UNNAMED PROTEIN PRODUCT,1.49
same,fold change,"protein LINJ.01.0790 […] 4A, PUTATIVE",0.85
same,fold change,"protein LINJ.03.0240 RIBOSOMAL PROTEIN L38, PUTATIVE",1.14
same,fold change vs vehicle control,"protein LINJ.04.0630 HY[…], CONSERVED",1.09
same,fold change,"protein LINJ.05.0070 DYNEIN LIGHT CHAIN, PUTATIVE",0.96
same,fold change,"protein LINJ.07.0210 CYTOCHROME C1, HEME PROTEIN, MITOCHONDRIAL PRECURSOR, PUTATIVE",0.88
same,fold change vs vehicle control,protein LINJ.08.1020 STRESS-INDUCED PROTEIN STI1,1.03
same,fold change,protein LINJ.16.1510 PARAFLAGELLAR ROD PROTEIN 2C,0.92
same,fold change,"protein LINJ.19.0140 PROTEIN KINASE, PUTATIVE,MITOGEN-ACTIVATED PROTEIN KINASE, PUTATIVE",1.32
same,fold change,"protein LINJ.20.0630 CYTIDINE TR[…], PUTATIVE",1.05
same,fold change,"protein LINJ.23.0860 3-KETOACYL-COA THIOLASE, PUTATIVE",1.05
same,fold change,"protein LINJ.24.2300 60S RIBOSOMAL PROTEIN L12, PUTATIVE",1.22
same,fold change,"protein LINJ.25.1460 GTP-BINDING PROTEIN, PUTATIVE",1.06
same,fold change,"protein LINJ.25.2230 SUCCINYL-COA […] SUBUNIT, PUTATIVE",1.11
same,fold change,"protein LINJ.26.0590 10 KDA HEAT SHOCK PROTEIN, PUTATIVE",0.86
same,fold change,"protein LINJ.26.0840 40S RIBOSOMAL PROTEIN S16, PUTATIVE",1.22
same,fold change,"protein LINJ.28.1310 GLUCOSE-REGULATED PROTEIN 78, PUTATIVE",1.01
same,fold change,"protein LINJ.28.1850 […]-ATP-ASE SUBUNIT 2, PUTATIVE",1.15
same,fold change,"protein LINJ.28.2280 DYNEIN LIGHT CHAIN LC6, FLAGELLAR OUTER ARM, PUTATIVE",0.97
same,fold change,"protein LINJ.31.0710 HY[…], CONSERVED",1.16
same,fold change,"protein LINJ.32.0240 DYNEIN LIGHT CHAIN, FLAGELLAR OUTER ARM, PUTATIVE",1.26
same,fold change vs vehicle control,"protein LINJ.32.2960 PROTEASOME REGULATORY NON-ATP-ASE SUBUNIT, PUTATIVE",0.88
same,fold change,"protein LINJ.32.3230 PROTEIN PHOSPHATASE 2A CATALYTIC SUBUNIT, PUTATIVE",1.15
same,fold change,protein LINJ.33.0350 HEAT SHOCK PROTEIN 83-1,1.1
same,fold change,protein LINJ.35.2250 kinetoplastid membrane protein 11,0.93
same,fold change,"protein LINJ.35.3840 60S RIBOSOMAL PROTEIN L23, PUTATIVE",1.19
same,fold change vs vehicle control,"protein LINJ.35.4200 POLY(A)-BINDING PROTEIN 2,POLY(A) BINDING PROTEIN, PUTATIVE",1.02
same,fold change,"protein LMJF.01.0320 POLY(A) EXPORT PROTEIN, PUTATIVE",1.12
same,fold change,"protein LMJF.01.0650 MIT[…] BETA SUBUNIT, PUTATIVE",0.98
same,fold change,"protein LMJF.02.0450 VOLTAGE-DEPENDENT ANION-SELECTIVE CHANNEL, PUTATIVE",1.01
same,fold change,"protein LMJF.03.0200 DELTA-1-PYRROLINE-5-CARBOXYLATE DEHYDROGENASE, PUTATIVE",0.9
same,fold change,"protein LMJF.03.0980 ELONGATION INITIATION FACTOR 2 ALPHA SUBUNIT, PUTATIVE",0.99
same,fold change vs vehicle control,protein LMJF.04.1230 actin,1.08
same,fold change vs vehicle control,"protein LMJF.07.0220 HYPOTHETICAL PROTEIN, CONSERVED",0.79
same,fold change,protein LMJF.07.0270 […] DEACETYLASE-LIKE PROTEIN,0.95
same,fold change,"protein LMJF.07.0340 ATP-DEPENDENT DEAD/H RNA HELICASE, PUTATIVE",1.01
same,fold change,"protein LMJF.07.0640 HYPOTHETICAL PROTEIN, CONSERVED",0.93
same,fold change,protein LMJF.07.1000 RNA BINDING PROTEIN-LIKE PROTEIN,1.23
same,fold change,protein LMJF.07.1140 PEPTIDE […] REDUCTASE-LIKE,1.13
same,fold change,"protein LMJF.08.0320 MITOCHONDRIAL ASSOCIATED RIBONUCLEASE, PUTATIVE",0.61
same,fold change,protein LMJF.09.0970 ELONGATION FACTOR-1 GAMMA,0.95
same,fold change,"protein LMJF.10.0210 NUCLEOLAR PROTEIN, PUTATIVE",1.03
same,fold change,"protein LMJF.11.0220 PTERIN-4-ALPHA-CARBINOLAMINE DEHYDRATASE, PUTATIVE",1.07
